Taken from: PubChem BioAssay AID1259290 (Sanger Institute, 2017)

Assay: 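Kinases whose loss kills colorectal cancer cells alone or alongside targeted drugs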 (primary screen)
Cell system: human SNUC1 colorectal cancer cells
Knock-down reagent: siRNA pool against human genes
Treatment: anchor drugs BYL719 1 µM, cetuximab 5 µg/ml or trametinib 10 nM, or DMSO vehicle alone
Measurement: 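Cell viability relative to a non-targeting siRNA control, replicate-averaged, as robust z-score for knock-down alone, plus a synergy score for each anchor drug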
Reading the numbers: viability z-score, siRNA alone: higher = more viable cells; low values mean essential gene; viability vs control, siRNA alone: higher = more viable cells; synergy score with BYL719 and synergy score with Cetuximab and synergy score with Trametinib: higher = stronger synthetic lethal effect with drug
Hit rule: 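a knock-down without drug scoring a robust z under -3 counts as essential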
Calls: active = essential: knock-down alone cut viability (z below -3); inactive = no clear viability loss with knock-down alone
Shown is a random part of 794 reagents. Over the whole deposit, 9 (1.1%) are marked active. 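Calls rest on knock-down alone, not drug synergy; synergy above 0.15 was grouped apart and does not affect calls.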 Entries without a mark were called inactive. Viability is capped at 1. No sequences are given here. Not given: the amount of reagent, the time to read-out.

no.	Gene	PubChem SID	viability z-score, siRNA alone	viability vs control, siRNA alone	synergy score with BYL719	synergy score with Cetuximab	synergy score with Trametinib
1	BMPR1A (bone morphogenetic protein receptor type 1A)	SID135620910	-0.645	0.858	-0.312	-0.0491	-0.136
2	PAPSS2 (3'-phosphoadenosine 5'-phosphosulfate synthase 2)	SID152148635	0.872	0.994	-0.179	-0.0258	0.0648
3	MECOM (MDS1 and EVI1 complex locus)	SID135621208	0.921	0.999	-0.199	-0.0461	-0.114
4	PXK (PX domain containing serine/threonine kinase like)	SID152149443	-0.347	0.884	-0.107	0.0188	-0.0878
5	ROS1 (ROS proto-oncogene 1, receptor tyrosine kinase)	SID56478551	-0.519	0.869	-0.141	0.0459	-0.132
6	IGF2R (insulin like growth factor 2 receptor)	SID152150296	0.818	0.989	-0.207	0.0436	-0.158

2 entries already listed, arranged by “synergy score with BYL719”, lowest first.
Gene	PubChem SID	viability z-score, siRNA alone	viability vs control, siRNA alone	synergy score with BYL719	synergy score with Cetuximab	synergy score with Trametinib
BMPR1A (bone morphogenetic protein receptor type 1A)	SID135620910	-0.645	0.858	-0.312	-0.0491	-0.136
PAPSS2 (3'-phosphoadenosine 5'-phosphosulfate synthase 2)	SID152148635	0.872	0.994	-0.179	-0.0258	0.0648

The listing continues:
no.	Gene	PubChem SID	viability z-score, siRNA alone	viability vs control, siRNA alone	synergy score with BYL719	synergy score with Cetuximab	synergy score with Trametinib
7	TWF2 (twinfilin actin binding protein 2)	SID56478547	0.111	0.926	-0.195	-0.0774	-0.0954
8	GRK2 (G protein-coupled receptor kinase 2)	SID152155453	0.0791	0.923	-0.111	-0.0497	0.0162
9	RPS6KA5 (ribosomal protein S6 kinase A5)	SID135620863	-0.403	0.879	-0.181	-0.0202	0.00706
10	PANK3 (pantothenate kinase 3)	SID56479122	-0.00713	0.915	-0.256	0.0445	-0.102
11	SCYL3 (SCY1 like pseudokinase 3)	SID56479033	0.398	0.951	-0.15	-0.0911	0.0396
12	CSNK1G1 (casein kinase 1 gamma 1)	SID152156369	-3.37 (active)	0.612	-0.289	-0.238	-0.205
13	NUP62 (nucleoporin 62)	SID135622326	-1.1	0.816	-0.193	0.00855	-0.049
14	BMAL1 (basic helix-loop-helix ARNT like 1)	SID134314841	-1.79	0.755	-0.108	0.0729	-0.0349
15	NME4 (NME/NM23 nucleoside diphosphate kinase 4)	SID56479075	-0.232	0.895	-0.163	-0.0494	-0.083
16	PRKCI (protein kinase C iota)	SID152150879	0.927	0.999	-0.171	-0.0456	-0.0382
17	GRK1 (G protein-coupled receptor kinase 1)	SID152156219	-0.851	0.839	0.118	0.014	-0.0157
18	CTNNB1 (catenin beta 1)	SID134309920	-3.37 (active)	0.612	-0.151	-0.215	-0.241
19	NEK7 (NIMA related kinase 7)	SID56478729	-0.0639	0.91	-0.151	-0.00726	-0.172
20	PRKAR2A	SID152153424	0.399	0.952	-0.0924	-0.00391	-0.0361
